The supplement of paper PMC10849652
The list shows a part of the results.

By UniProt entry, the sequences of proteins in these tests, tags left out. Where a name states a change or a piece, a line headed by the entry shows the natural chain unless it says otherwise.
UniProt Q5XKP0: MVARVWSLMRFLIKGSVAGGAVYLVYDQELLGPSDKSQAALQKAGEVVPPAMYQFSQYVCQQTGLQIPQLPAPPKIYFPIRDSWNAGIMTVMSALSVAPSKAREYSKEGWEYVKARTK
UniProt Q8N108: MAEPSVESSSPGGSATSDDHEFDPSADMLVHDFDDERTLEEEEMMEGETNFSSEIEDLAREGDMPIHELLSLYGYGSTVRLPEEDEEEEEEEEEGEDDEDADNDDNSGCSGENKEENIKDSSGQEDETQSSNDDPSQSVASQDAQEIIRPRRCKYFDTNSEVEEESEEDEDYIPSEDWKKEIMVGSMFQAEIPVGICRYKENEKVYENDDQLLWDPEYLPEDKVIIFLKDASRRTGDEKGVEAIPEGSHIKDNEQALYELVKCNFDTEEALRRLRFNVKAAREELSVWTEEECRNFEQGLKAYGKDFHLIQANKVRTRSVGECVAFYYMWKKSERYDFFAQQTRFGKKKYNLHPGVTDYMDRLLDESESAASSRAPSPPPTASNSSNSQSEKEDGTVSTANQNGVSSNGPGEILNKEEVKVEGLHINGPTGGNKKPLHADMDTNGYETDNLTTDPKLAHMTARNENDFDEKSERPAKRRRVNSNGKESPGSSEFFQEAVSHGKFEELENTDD
UniProt Q8N4C8: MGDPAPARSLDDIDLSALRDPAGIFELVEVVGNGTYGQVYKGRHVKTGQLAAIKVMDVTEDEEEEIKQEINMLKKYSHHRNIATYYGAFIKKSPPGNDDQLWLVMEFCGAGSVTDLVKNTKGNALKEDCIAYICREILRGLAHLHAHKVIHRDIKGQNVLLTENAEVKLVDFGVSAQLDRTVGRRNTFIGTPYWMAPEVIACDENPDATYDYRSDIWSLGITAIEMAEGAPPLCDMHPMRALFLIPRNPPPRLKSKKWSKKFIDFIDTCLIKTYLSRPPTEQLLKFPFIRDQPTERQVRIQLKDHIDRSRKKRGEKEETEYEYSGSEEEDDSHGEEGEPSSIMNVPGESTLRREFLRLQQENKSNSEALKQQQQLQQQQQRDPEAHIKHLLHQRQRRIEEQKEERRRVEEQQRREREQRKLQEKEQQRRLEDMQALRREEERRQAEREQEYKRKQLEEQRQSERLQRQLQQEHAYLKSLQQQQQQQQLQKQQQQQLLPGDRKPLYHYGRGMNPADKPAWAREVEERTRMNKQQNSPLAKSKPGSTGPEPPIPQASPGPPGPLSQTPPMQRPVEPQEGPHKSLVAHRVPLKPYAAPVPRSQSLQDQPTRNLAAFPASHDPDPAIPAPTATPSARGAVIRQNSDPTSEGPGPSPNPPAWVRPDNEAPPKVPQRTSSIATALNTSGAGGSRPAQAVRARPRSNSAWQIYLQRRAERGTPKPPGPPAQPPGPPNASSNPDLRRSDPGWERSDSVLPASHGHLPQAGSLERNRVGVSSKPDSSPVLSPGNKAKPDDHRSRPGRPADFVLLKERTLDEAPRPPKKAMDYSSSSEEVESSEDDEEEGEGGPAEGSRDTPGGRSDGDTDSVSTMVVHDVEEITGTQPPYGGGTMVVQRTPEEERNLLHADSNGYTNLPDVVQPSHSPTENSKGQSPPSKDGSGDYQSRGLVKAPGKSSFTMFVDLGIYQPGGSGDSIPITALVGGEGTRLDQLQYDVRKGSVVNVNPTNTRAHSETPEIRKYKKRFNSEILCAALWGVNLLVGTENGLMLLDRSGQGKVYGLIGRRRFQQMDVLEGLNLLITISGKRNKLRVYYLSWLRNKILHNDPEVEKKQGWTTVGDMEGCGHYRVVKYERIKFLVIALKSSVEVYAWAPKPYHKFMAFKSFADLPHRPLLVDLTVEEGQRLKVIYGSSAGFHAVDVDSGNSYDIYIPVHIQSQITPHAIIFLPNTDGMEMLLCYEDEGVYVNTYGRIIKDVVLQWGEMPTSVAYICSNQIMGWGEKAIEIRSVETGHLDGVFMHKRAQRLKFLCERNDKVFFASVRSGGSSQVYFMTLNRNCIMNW
UniProt P14174: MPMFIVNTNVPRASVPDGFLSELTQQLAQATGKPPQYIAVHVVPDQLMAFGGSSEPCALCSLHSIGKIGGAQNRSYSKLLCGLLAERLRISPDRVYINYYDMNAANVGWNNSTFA
UniProt O75352: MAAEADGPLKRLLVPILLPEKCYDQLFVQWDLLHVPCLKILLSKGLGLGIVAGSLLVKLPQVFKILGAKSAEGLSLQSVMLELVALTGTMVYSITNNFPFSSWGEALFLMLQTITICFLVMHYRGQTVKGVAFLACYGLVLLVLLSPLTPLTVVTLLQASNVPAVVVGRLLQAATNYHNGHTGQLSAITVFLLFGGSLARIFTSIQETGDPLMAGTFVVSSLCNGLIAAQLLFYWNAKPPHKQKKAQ
UniProt Q9BRT3: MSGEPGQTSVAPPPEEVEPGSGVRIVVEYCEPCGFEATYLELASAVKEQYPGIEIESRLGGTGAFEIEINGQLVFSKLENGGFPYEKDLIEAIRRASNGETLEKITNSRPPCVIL
UniProt Q9BPX6: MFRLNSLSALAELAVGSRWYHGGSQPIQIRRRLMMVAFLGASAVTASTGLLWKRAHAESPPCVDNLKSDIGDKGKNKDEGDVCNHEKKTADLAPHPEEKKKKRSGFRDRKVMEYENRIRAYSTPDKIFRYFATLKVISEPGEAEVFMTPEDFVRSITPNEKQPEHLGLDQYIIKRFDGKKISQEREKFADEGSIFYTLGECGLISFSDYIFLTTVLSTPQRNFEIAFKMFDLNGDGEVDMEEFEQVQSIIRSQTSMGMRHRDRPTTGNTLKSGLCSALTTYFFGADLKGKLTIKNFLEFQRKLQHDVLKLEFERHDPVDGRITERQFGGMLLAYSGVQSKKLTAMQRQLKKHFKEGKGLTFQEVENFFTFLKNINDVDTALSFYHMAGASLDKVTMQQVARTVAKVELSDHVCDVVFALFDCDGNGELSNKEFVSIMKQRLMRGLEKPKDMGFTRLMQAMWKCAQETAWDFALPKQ
UniProt Q9BVC4, whole entry, looked up: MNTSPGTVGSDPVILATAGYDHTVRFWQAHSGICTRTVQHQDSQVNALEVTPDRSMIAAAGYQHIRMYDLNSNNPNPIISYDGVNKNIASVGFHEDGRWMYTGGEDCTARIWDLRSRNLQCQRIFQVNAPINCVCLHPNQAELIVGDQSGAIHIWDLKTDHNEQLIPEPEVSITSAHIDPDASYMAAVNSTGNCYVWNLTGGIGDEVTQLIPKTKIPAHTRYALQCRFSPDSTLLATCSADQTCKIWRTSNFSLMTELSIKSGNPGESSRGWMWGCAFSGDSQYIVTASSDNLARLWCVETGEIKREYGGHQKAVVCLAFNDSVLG
UniProt P51948: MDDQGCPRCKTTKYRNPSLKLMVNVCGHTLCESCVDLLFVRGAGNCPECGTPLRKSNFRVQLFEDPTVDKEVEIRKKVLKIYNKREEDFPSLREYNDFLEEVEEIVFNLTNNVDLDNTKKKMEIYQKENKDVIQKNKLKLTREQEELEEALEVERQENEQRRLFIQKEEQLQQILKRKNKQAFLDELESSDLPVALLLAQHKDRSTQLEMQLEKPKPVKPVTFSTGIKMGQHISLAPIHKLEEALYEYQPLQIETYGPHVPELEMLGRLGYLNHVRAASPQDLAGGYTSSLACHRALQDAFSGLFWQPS
UniProt Q9HCE1: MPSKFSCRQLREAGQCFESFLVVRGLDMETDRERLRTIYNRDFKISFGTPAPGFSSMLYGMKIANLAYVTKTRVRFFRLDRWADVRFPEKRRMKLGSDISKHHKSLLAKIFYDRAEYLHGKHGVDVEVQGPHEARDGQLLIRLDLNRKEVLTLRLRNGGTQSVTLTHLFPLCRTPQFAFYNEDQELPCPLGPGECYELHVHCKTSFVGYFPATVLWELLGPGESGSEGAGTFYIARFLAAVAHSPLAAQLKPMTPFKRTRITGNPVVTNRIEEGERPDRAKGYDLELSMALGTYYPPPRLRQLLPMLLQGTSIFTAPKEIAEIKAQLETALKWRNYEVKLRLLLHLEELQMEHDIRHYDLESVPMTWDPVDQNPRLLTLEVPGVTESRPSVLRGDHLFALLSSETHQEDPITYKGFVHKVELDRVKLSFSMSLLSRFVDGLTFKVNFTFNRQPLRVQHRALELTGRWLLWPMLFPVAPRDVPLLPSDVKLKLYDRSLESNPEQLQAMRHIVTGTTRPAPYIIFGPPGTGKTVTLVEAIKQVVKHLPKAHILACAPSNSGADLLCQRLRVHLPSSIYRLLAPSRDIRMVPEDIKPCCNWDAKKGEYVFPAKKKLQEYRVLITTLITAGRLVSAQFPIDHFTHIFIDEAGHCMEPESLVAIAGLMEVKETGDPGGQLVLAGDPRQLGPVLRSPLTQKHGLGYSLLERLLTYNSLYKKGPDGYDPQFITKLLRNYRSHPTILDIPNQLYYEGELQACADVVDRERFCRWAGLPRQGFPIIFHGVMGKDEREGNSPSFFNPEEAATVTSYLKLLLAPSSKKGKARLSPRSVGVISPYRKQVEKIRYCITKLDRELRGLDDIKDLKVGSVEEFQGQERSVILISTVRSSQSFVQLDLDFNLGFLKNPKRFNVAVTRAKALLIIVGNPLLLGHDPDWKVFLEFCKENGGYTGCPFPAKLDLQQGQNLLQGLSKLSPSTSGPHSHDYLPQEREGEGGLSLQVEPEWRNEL
UniProt Q7RTP6, whole entry, looked up: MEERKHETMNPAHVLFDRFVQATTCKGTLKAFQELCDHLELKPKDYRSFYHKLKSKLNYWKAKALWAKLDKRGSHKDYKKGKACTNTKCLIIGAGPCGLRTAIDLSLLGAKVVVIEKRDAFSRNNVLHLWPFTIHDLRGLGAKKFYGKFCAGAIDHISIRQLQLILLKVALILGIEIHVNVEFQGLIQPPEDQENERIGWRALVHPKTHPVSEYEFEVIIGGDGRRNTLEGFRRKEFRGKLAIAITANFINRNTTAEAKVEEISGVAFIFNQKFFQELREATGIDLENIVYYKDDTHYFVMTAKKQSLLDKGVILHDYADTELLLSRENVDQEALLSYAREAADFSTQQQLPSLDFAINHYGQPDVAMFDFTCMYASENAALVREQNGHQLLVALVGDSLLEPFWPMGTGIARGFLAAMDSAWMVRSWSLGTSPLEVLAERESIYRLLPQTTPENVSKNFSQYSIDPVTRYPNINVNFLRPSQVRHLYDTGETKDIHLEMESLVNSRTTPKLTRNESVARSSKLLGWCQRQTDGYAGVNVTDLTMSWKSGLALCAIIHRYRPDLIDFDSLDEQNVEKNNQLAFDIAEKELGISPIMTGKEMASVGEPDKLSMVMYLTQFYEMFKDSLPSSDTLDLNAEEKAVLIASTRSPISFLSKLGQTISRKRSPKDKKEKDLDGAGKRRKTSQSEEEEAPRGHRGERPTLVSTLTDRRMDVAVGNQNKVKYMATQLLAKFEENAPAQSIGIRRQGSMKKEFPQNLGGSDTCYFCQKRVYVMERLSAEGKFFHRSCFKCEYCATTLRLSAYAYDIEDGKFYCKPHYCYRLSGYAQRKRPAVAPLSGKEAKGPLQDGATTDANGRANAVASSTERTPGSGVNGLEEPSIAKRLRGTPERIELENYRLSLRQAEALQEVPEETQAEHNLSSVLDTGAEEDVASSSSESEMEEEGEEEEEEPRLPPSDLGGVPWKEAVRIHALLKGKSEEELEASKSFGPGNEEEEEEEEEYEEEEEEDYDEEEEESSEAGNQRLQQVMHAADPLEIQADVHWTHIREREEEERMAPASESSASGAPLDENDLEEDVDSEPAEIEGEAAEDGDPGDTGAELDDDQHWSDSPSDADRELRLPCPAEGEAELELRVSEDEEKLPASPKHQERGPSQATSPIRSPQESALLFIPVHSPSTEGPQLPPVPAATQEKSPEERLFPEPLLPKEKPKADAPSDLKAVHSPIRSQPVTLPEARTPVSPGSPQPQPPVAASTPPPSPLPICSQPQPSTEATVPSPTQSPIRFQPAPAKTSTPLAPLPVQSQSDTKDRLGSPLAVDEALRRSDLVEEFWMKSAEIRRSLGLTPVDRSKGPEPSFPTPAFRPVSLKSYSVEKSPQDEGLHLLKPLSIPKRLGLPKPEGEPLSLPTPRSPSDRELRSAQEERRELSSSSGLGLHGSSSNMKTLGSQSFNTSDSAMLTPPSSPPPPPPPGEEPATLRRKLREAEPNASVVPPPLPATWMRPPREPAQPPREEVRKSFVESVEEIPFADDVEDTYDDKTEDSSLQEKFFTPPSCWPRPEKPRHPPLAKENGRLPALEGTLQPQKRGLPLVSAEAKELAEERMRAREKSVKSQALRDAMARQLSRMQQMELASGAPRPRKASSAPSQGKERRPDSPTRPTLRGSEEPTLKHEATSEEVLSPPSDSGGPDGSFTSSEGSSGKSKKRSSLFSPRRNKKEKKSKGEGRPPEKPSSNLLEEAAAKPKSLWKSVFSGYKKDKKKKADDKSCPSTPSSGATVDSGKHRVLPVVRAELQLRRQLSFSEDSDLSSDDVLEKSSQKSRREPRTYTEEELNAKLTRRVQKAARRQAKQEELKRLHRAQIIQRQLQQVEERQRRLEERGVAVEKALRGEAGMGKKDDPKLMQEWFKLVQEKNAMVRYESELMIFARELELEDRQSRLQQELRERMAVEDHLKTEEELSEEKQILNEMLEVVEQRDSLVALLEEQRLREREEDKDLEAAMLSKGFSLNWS

These targets were tested with C1=CC=C2C(=C1)C3=NNC4=CC=CC(=C43)C2=O (assay: log2 fold change, soluble protein after heating vs DMSO (PISA); higher = thermal stabilisation; K562 cells, 10 uM, 30 min; active = over 0.2 and 3.5 SD of the protein, either way, in both replicates (recomputed)).
Procedure, shortened: (§1)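 K562 cells at 2×10^6 cells/mL were treated with 10 μM compound for 30 min. Aliquots were heated for 3 min across 48°C-58°C, pooled, and extracted in PBS with 0.5% NP-40 at 4°C; soluble protein was the supernatant after 21,000xg for 90 min. Soluble protein was quantified by TMTpro 16plex LC-MS/MS with channel sums equalised, and reported as log2 fold change in thermal stability against DMSO controls, with values from duplicates.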

log2 fold change, inactive:
MPP1 (UniProt Q00013) 0.033
MICU2 (UniProt Q8IYU8) 0.018
MICOS13 (UniProt Q5XKP0) 0.052
MIER1 isoform 12 (UniProt Q8N108) 0.02
MPHOSPH10 (UniProt O00566) -0.004
MOCS3 (UniProt O95396) 0.047
MINK1 (UniProt Q8N4C8) -0.203
MIF (UniProt P14174) -0.069
MPDU1 (UniProt O75352) 0.011
MORC3 (UniProt Q14149) 0.014
MKRN2 (UniProt Q9H000) -0.052
MRPL46 (UniProt Q9H2W6) 0.164
MIEN1 (UniProt Q9BRT3) -0.065
MRPL47 (UniProt Q9HD33) 0.094
MON2 isoform 5 (UniProt Q7Z3U7) 0.007
MRPL34 (UniProt Q9BQ48) 0.018
MRPL55 isoform 2 (UniProt Q7Z7F7) 0.331
MLX (UniProt Q9UH92) -0.076
MRPL39 (UniProt Q9NYK5) 0.04
MRPL50 (UniProt Q8N5N7) 0.072
MITD1 (UniProt Q8WV92) 0.101
MIEF1 (UniProt Q9NQG6) -0.027
MICU1 isoform 3 (UniProt Q9BPX6) 0.008
MON1B (UniProt Q7L1V2) -0.004
MPV17 (UniProt P39210) 0.025
MIS12 (UniProt Q9H081) -0.018
MND1 (UniProt Q9BWT6) 0.009
MIS18A (UniProt Q9NYP9) -0.019
MLST8 (UniProt Q9BVC4) -0.111
MNAT1 (UniProt P51948) -0.002
MORF4L2 (UniProt Q15014) -0.039
MIEF1 (UniProt L0R8F8) 0.02
MKNK1 (UniProt Q9BUB5) 0.001
MOV10 (UniProt Q9HCE1) -0.054
MRPL57 (UniProt Q9BQC6) 0.042
MMS19 isoform 8 (UniProt Q96T76) 0.016
MPRIP isoform 2 (UniProt Q6WCQ1) -0.018
MICAL3 (UniProt Q7RTP6) -0.003

These targets were tested with C1CCN(C1)C(=O)NC2=CC=CC(=C2)NC3=NC=C(C(=N3)NCCC4=CN=CN4)Br in the same assay as above.
Procedure, shortened: as §1

log2 fold change, inactive:
MPP1 (UniProt Q00013) -0.048
MICU2 (UniProt Q8IYU8) 0.045
MICOS13 (UniProt Q5XKP0) 0.007
MIER1 isoform 12 (UniProt Q8N108) -0.06
MPHOSPH10 (UniProt O00566) 0.024
MOCS3 (UniProt O95396) 0.029
MINK1 (UniProt Q8N4C8) -0.003
MIF (UniProt P14174) -0.057
MPDU1 (UniProt O75352) 0.018
MORC3 (UniProt Q14149) -0.026
MKRN2 (UniProt Q9H000) -0.085
MRPL46 (UniProt Q9H2W6) -0.031
MIEN1 (UniProt Q9BRT3) 0.024
MRPL47 (UniProt Q9HD33) -0.004
MON2 isoform 5 (UniProt Q7Z3U7) -0.019
MRPL34 (UniProt Q9BQ48) -0.004
MRPL55 isoform 2 (UniProt Q7Z7F7) 0.039
MLX (UniProt Q9UH92) -0.012
MRPL39 (UniProt Q9NYK5) 0.009
MRPL50 (UniProt Q8N5N7) -0.084
MITD1 (UniProt Q8WV92) 0.03
MIEF1 (UniProt Q9NQG6) -0.028
MICU1 isoform 3 (UniProt Q9BPX6) 0.013
MON1B (UniProt Q7L1V2) -0.005
MPV17 (UniProt P39210) 0.012
MIS12 (UniProt Q9H081) -0.16
MND1 (UniProt Q9BWT6) -0.081
MIS18A (UniProt Q9NYP9) 0.007
MLST8 (UniProt Q9BVC4) -0.035
MNAT1 (UniProt P51948) -0.067
MORF4L2 (UniProt Q15014) -0.108
MIEF1 (UniProt L0R8F8) -0.107
MKNK1 (UniProt Q9BUB5) -0.051
MOV10 (UniProt Q9HCE1) 0.04
MRPL57 (UniProt Q9BQC6) -0.003
MMS19 isoform 8 (UniProt Q96T76) -0.01
MPRIP isoform 2 (UniProt Q6WCQ1) 0.002
MICAL3 (UniProt Q7RTP6) 0.073
